# Measurements as given in PubChem BioAssay AID493014 (National Center for Advancing Translational Sciences (NCATS), 2011).
# The list shows a part of the results. These are further read-outs of the screen, such as a control signal, another cell line or another target. No call is given for them. Compounds called inactive in the main read-out are mostly missing here. The note in brackets gives the kind of curve behind each potency; many fits are weak.
# Experiment: qHTS Assay to Find Inhibitors of Chronic Active B-Cell Receptor Signaling
# Conditions: ABC-DLBCL IkBa-CBG/CBR reporter, luminescence ratio (green luciferase fused to IkBa over red control in TMD8 lymphoma cells), 4 h
# In short: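 Compounds up to 46 uM were incubated four hours with TMD8 cells whose green CBG68 luciferase is fused to IkappaBalpha; red CBR luminescence normalised the signal, and concentration-effect curves were fitted to fusion, red and ratio data.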
# [1] = measured here: CBR red luminescence, cell number
# [2] = measured here: IkBa-CBG green luminescence
Compound,AC50 [1],AC50 [2]
COc1cccc(-c2c(C(=O)N/N=C/c3sccc3C)nnn2-c2nonc2N)c1,"12.6 µM [falling, partial curve, poor fit]",–
C=CC[C@@H](CC(=O)N[C@@H](CO)Cc1ccccc1)C(=O)N[C@H](COC(=O)[C@@H](CC=C)CC(=O)OC(C)(C)C)Cc1c[nH]c2ccccc12,"29.1 µM [falling, single point]",–
O=C(NCCc1cccc(F)c1)C1CCCN(c2nc3ccccc3s2)C1 (stereo unspecified),"12.6 µM [falling, partial curve, poor fit]",–
COc1ccc(C(=O)C(OC(=O)c2ccccc2Cl)c2ccccc2)cc1 (stereo unspecified),"1.03 µM [falling, partial curve, poor fit]",–
CCCCn1c(N)c(N(Cc2ccccc2OC)C(=O)c2cc(CC)c(C)s2)c(=O)[nH]c1=O,"32.6 µM [falling, single point]",–
O=C(N/N=C/c1sc(=O)[nH]c1-[n+]1ccccc1)c1ccccc1[O-],"11.2 µM [falling, partial curve, poor fit]",–
CCSc1nnc(NC(=O)C2CCCCC2)s1,"7.94 µM [falling, partial curve, poor fit]",–
O=CN1CCCN(Cc2nc(Cc3ccccc3F)no2)CC1,"7.94 µM [rising, partial curve]",–
Cn1c(CCN2CCN(c3ccccn3)CC2)nc2cc(NS(=O)(=O)c3ccc(Cl)cc3)ccc21,"8.91 µM [falling, partial curve]",–
O=[N+]([O-])c1cc(C(F)(F)F)ccc1Sc1nccn1Cc1ccccc1,"35.5 µM [falling, single point]","17.8 µM [rising, partial curve, poor fit]"
COC(=O)C(Cc1ccccc1)NC(=O)c1ccc(C)cc1 (stereo unspecified),"0.708 µM [rising, full curve, poor fit]",–
Cc1cccc(-n2nc(C(=O)Nc3ccccc3)n3c(=O)cc(-c4ccccc4)nc23)c1,"23.1 µM [falling, single point]",–
CC(C)(C)NC(=O)COC(=O)c1ccc(NC(=O)CC#N)cc1,"35.5 µM [falling, single point]",–
Cc1ccc(NC(=O)CSc2nn3c(=O)c(C)nnc3s2)cc1Cl,"3.98 µM [falling, full curve, poor fit]",–
CCN1C(=O)N/C(=C/c2ccc(Sc3ccc(C)cc3)o2)C1=O,"1.78 µM [falling, partial curve]",–
COc1cccc(NC(=O)CSc2nc3ccccc3c3nc4ccccc4n23)c1,"0.0731 µM [falling, full curve]",–
Cc1ccc2[nH]c(=O)c(CN(CCCN(C)C)C(=S)NCCc3ccccc3)cc2c1,"6.31 µM [falling, single point]",–
Cc1ccc(-c2nnc(-c3ccc4c(c3)OCO4)o2)cc1,"2.24 µM [rising, partial curve, poor fit]",–
CC(C)C(=O)Nc1ccc2c(c1)nc1n2CCSC1,"16.4 µM [rising, partial curve]",–
COc1cccc(C(=O)/C=C/c2ccc(OCC#N)c(OC)c2)c1,"4.61 µM [falling, full curve]",–
S=C(NCCc1ccccc1)Nc1ccc(Br)cn1,"8.91 µM [rising, partial curve, poor fit]",–

# Filtered by structure: the compounds so far with two or more sulfur atoms (2)
Compound,AC50 [1],AC50 [2]
CCSc1nnc(NC(=O)C2CCCCC2)s1,"7.94 µM [falling, partial curve, poor fit]",–
Cc1ccc(NC(=O)CSc2nn3c(=O)c(C)nnc3s2)cc1Cl,"3.98 µM [falling, full curve, poor fit]",–

# One compound at a time (already shown). Values in the order: AC50 [1] | AC50 [2]
# `CCCCn1c(N)c(N(Cc2ccccc2OC)C(=O)c2cc(CC)c(C)s2)c(=O)[nH]c1=O` in the list: 32.6 µM [falling, single point] | –
# `O=[N+]([O-])c1cc(C(F)(F)F)ccc1Sc1nccn1Cc1ccccc1` in the list: 35.5 µM [falling, single point] | 17.8 µM [rising, partial curve, poor fit]

# (continued)

Compound,AC50 [1],AC50 [2]
Cc1ccc(C2=NNC(c3cccc(F)c3)S2)cc1 (stereo unspecified),"5.62 µM [falling, full curve, poor fit]",–
COc1ccc2nc3cc(Cl)ccc3c(Nc3cc(C(C)C)c(O)cc3C)c2c1,"20 µM [falling, single point]","15.8 µM [rising, partial curve, poor fit]"
C#CCOCCOCCOCCNc1nc(N2CCOCC2)nc(N2CCN(C(=O)CCCCCCCCCCNC(=O)[C@H]([C@@H](C)CC)n3cc(CCCCN=C(N)N)nn3)CC2)n1,"7.31 µM [rising, partial curve, poor fit]",–
Cc1ccc(NC(=O)c2cc(-c3cccs3)on2)cc1C,"10 µM [falling, partial curve, poor fit]",–
CCN(CC)C1CCN(C(=O)c2cc(COc3ccc(F)cc3Cl)on2)C1 (stereo unspecified),"12.6 µM [rising, partial curve, poor fit]",–
COc1ccc(C(=O)NNC(=S)NC(=O)c2ccccc2)cc1,"20 µM [rising, partial curve, poor fit]",–
Cc1ccc(-c2nc3ccccc3[nH]2)cc1N,"14.6 µM [falling, partial curve, poor fit]",–
O=C(Nc1ccc(F)cc1)c1cccc(NC(=O)C2C3CC4OC(=O)C2C4C3)c1 (stereo unspecified),"13 µM [falling, partial curve]",–
Cc1cc(N)n(-c2ccc3ccccc3c2)n1,"0.562 µM [rising, full curve, poor fit]",–
CSc1ccc(-c2nc(CSCC(=O)NCCCN3CCCC3=O)c(C)o2)cc1,"6.31 µM [falling, single point]",–
CCN(C[C@H]1N[C@@](Cc2ccccc2)(C(=O)OC)[C@H]2C(=O)N(Cc3ccccc3)C(=O)[C@@H]12)C(=O)Nc1ccc(F)cc1,"29.1 µM [falling, single point]",–
O=c1c2ccccc2nnn1Cc1ccccc1,"35.5 µM [falling, partial curve, poor fit]",–
CC(C)=CC(=O)Nc1nnc(C(C)C)s1,"6.31 µM [rising, single point]",–
CC(C)(C)c1ccc(C(=O)N/N=C/c2ccccn2)cc1,"22.4 µM [rising, single point]",–
O=C(CS(=O)(=O)c1ccccc1)Nc1nnc(-c2cccs2)o1,"23.1 µM [falling, single point]",–
Cc1cnc(SCc2ccc(Cl)cc2Cl)[nH]c1=O,"3.16 µM [rising, single point]",–
Cc1ccc2nc(N3CCN(C(=O)c4ccco4)CC3)c3nncn3c2c1,"0.501 µM [rising, full curve, poor fit]",–
COCCN(C(=O)Cc1cccs1)C(C(=O)NCc1ccc(OC)cc1)c1ccc(C)cc1 (stereo unspecified),"32.6 µM [falling, single point]",–
Cc1ccc(-n2nc3ccc(NC(=O)/C=C/c4ccco4)cc3n2)cc1,"23.1 µM [rising, partial curve, poor fit]",–
CC(CC(=O)Nc1cc(C(F)(F)F)ccc1Cl)c1ccccc1 (stereo unspecified),"6.31 µM [rising, full curve]",–
O=C(CC(C(=O)N1CCc2ccccc21)n1ccnc1)NCc1cccnc1 (stereo unspecified),"29.1 µM [rising, single point]",–

Compound,AC50 [1],AC50 [2]
NC(=O)CC1SC(N)=NC1=O (stereo unspecified),"4.11 µM [falling, partial curve, poor fit]",–
COc1ccc(COCC(O)CN2CCC(C(N)=O)CC2)cc1OC (stereo unspecified),"5.62 µM [rising, single point]",–
Cc1cc(-c2nc(C)c(C(=O)NN)s2)no1,"0.316 µM [falling, full curve, poor fit]",–
c1ccc2[nH]c(NCCCN3CCOCC3)nc2c1,"5.01 µM [rising, single point]",–
Cc1ccsc1C(=O)OCC(=O)Nc1nnc(-c2ccccc2)o1,"18.4 µM [falling, single point]",–
CN(C)C(=O)N1CCNCC1,"35.5 µM [rising, partial curve, poor fit]",–
O=C(N=Nc1c(O)n(C2OC(=O)c3ccccc32)c2ccccc12)c1ccc(O)cc1 (stereo unspecified),"1.26 µM [falling, full curve, poor fit]",–
O=C(c1ccc2ccccc2c1)N1CCc2ccccc21,"1 µM [falling, partial curve, poor fit]",–
Cc1ccc(S(=O)(=O)N2CCCCC2)cc1NC(=S)NC(=O)c1ccco1,"3.98 µM [falling, single point]",–
C/C(=N\N1C(=O)c2ccccc2NC1c1ccco1)c1ccccc1O (stereo unspecified),"35.5 µM [falling, single point]","35.5 µM [falling, partial curve, poor fit]"
COc1c(C(=O)NNC(=O)c2ccccc2Cl)csc1Br,"22.4 µM [falling, partial curve, poor fit]",–
Cc1sc2ncn(C(C)C(=O)OC3CCCCC3)c(=O)c2c1C (stereo unspecified),"0.00461 µM [falling, full curve, poor fit]",–
COc1ccc(/C=C2\Oc3ccccc3C2=O)cc1,"13 µM [falling, single point]",–
COCCNC(=O)C(c1ccc(F)cc1)N(C(=O)CCC(=O)Nc1nccs1)c1cccc(C)c1 (stereo unspecified),"22.4 µM [falling, single point]",–
Oc1[nH]c2ccccc2c1C=Nc1ccccc1,"10 µM [falling, partial curve]",–
COc1ccc(C(=O)N2CCC(O)(c3ccc(F)cc3)CC2)cc1OC,"3.26 µM [falling, single point]",–
O=C(NCc1ccccc1)c1cc(-c2ccco2)on1,"16.4 µM [falling, partial curve, poor fit]",–
O=C(c1ccccc1Sc1ccc([N+](=O)[O-])cc1)N1CCCCC1,"13 µM [rising, partial curve]",–
Cc1ccc(NC(=O)c2cc(-c3ccco3)on2)cc1C,"7.08 µM [falling, full curve]",–
CC(OC(=O)c1ccco1)C(=O)Nc1nc(-c2ccccc2)cs1 (stereo unspecified),"29.1 µM [falling, single point]",–
COc1ccc(N2C(=O)CN=C2Nc2nc(C)cc(C)n2)cc1,"3.66 µM [falling, partial curve, poor fit]",–
